Test results: publication PMC3814370, “Functional assignment of KEOPS/EKC complex subunits in the biosynthesis of the universal t^6A tRNA modification” (Nucleic Acids Research, 2013)
These are yes or no findings as the source states them, for the method shown. Some results given as binding are weak or reduced against the parent protein; the word gives no strength.

The chains behind the UniProt entries cited, without tags or fusion partners.
UniProt Q9UXT7: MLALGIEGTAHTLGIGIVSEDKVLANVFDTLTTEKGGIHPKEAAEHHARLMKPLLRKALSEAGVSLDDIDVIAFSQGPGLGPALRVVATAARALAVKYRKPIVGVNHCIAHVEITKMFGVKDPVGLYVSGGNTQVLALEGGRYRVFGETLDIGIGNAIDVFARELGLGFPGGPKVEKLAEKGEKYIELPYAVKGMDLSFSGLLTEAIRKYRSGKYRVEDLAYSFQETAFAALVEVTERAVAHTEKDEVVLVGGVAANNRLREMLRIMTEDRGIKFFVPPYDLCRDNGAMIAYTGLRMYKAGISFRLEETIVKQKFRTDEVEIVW

Experiments:
[1] = biological target: T1, Bud32–Cgi121 binary complex from Pyrococcus abyssi (Pyrococcus abyssi) (UniProt Q9UYB9+Q9UZ62); assay: co-purification of co-expressed proteins (Ni-NTA, then gel filtration); subunits co-expressed in E. coli; extract heated at 65°C for 15 min; His-tagged proteins purified on Ni-NTA, then Superdex 200 in storage buffer (LBs); fractions analysed by SDS-PAGE
T1 sequence 1: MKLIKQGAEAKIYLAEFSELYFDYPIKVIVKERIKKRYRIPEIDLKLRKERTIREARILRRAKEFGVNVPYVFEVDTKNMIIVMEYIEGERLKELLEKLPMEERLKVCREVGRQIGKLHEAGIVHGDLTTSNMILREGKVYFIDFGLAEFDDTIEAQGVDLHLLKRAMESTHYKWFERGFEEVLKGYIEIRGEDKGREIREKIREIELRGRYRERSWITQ
T1 sequence 2: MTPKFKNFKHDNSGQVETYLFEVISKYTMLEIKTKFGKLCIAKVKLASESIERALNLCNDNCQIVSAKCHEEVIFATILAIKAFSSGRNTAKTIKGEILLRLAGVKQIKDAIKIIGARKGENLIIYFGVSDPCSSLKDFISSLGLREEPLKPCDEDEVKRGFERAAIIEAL

[2] = biological target: Kae1–Bud32–Cgi121 ternary complex from Pyrococcus abyssi (Pyrococcus abyssi) (UniProt Q9UXT7+Q9UYB9+Q9UZ62); assay: SEC; gel filtration of purified proteins and complexes on Superdex 200 in storage buffer (LBs); apparent molecular mass (Supplementary Figure S2); both purified

In the case of “Kae1 from Pyrococcus abyssi (from UniProt Q9UXT7 1-324) (enzyme)”, the binding [1] is reported as “binds”.

In the case of “Kae1–Bud32–Cgi121 ternary complex from Pyrococcus abyssi (from UniProt Q9UXT7 1-324; Q9UYB9 1-220; Q9UZ62 1-171)”, the binding [2] is reported as “no binding”.
